The values below come from US10195212B2, “Glucocorticoid-loaded nanoparticles for prevention of corneal allograft rejection and neovascularization” (The Johns Hopkins University, priority 2014, dated 2019).

This data set can be described thus: In vivo ocular DSP levels after SC injection ([3H]-labeled DSP). Also noted: species or system Sprague Dawley rat. On the procedure: In order to detect the ocular DSP level after SC injection in rats, [3H]-labeled DSP spiked with DSP (10 μCi:1 mg DSP) during the preparation of F127-coated DSP-loaded PLGA nanoparticles (DSP-NP). Nanoparticles were suspended in saline at 20 μCi/mL. The free DSP solution at 20 μCi/mL was prepared at the same blending ratio. 40 μL (˜0.8 μCi per eye) of same formulation was injected to both eyes of the same animal (Sprague Dawley rat). At the indicated time intervals, 2 h, 1 day, 3 day, 5 day and 7 day after injection, the rats were anesthetized by intramuscular injection of ketamine/xylazine solution. The animal was sacrificed after collecting two drops of blood from the tail vein.
The eye ball with conjunctiva tissue was carefully removed from rats and rinsed with PBS, dried by Kimwipe tissue. The anterior chamber humor, cornea, vitreous, retina and the remaining eye ball tissue were carefully dissected and collected. Both cornea and retina tissues were rinsed with PBS and dried with Kimwipe tissue. All the samples were weighed, dissolved with 2 mL of Solvable by incubation at 50° C. overnight. Blood samples were bleached with 0.2 ml H2O2 and 20 μL, 0.5M EDTA. 10 ml […] scintillation medium was added before counting the radioactivity in a scintillation counter. The results were expressed as a percentage of the injected dose and are the mean±sd of four eyes (2 animals) per data point. […] Total percentage of injected dose at the periocular tissue and the radioactivity per mg (or mL) of tissue were calculated.
Example 1 describes the in vivo ocular DSP level within 1 week after SC injection. […] Ten milliliters of Ultima gold scintillation medium (Perkin Elmer, Waltham, Mass.) was added before counting the radioactivity in a scintillation counter (Perkin Elmer, Waltham, Mass.). The results were expressed as a percentage of the injected dose and are the mean±standard deviation (SD) of four eyes per data point. […] The total percentage of the injected dose at the injection sites and the radioactivity per mg of tissue or mL of blood were calculated.

Counter-ions that a name gives are not always drawn.

For the molecule `C[C@@H]1C[C@H]2[C@@H]3CCC4=CC(=O)C=C[C@]4(C)[C@@]3(F)[C@@H](O)C[C@]2(C)[C@@]1(O)C(=O)COP(=O)(O)O` [DSP, Dexamethasone 21-phosphate sodium salt], under “PO 2 h, SC injection”, the “blood DSP level relative to DSP-NP injection” value is “more than 8 fold”. Also, the “duration of effective DSP concentration in anterior chamber” value (SC administration) is recorded as “less than 6 hr”. Under “rat eyes, SC injection”, the “time of peak concentration of DSP in aqueous and vitreous” value is reported as “two hours after injection”.
